# In PubChem BioAssay AID504621 (Broad Institute, 2011):
# In all, about 310,000 compounds went through this assay and about 970 (0.31%) were called active. Inconclusive results, whose numbers are uncertain, are shown with a selection of clear calls.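 The calls were made as follows: active = every replicate shows inhibition above about 80%, whatever the replicate mean (limit read from the data); inconclusive = mean inhibition reaches the set limit but some replicate falls short; inactive = the rest.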
# Assay: reduced ATP signal of yeast carrying P. falciparum Hsp90 – S. cerevisiae, BacTiter-Glo luminescence, single point, set 2, antimalarial PfHsp90 inhibitor project, primary screen (AID 504621);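 also: yeast relying on Plasmodium falciparum Hsp90 in place of its own; 0% = DMSO neutral controls and 100% = 20 µM radicicol positive controls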
# Details: S. cerevisiae expressing PfHsp90, growth, 48 h, at 9.4 µM, hits give high values
row,Compound,inhibition
1,C[n+]1c(-c2ccccc2)cc(CCCCc2cc(-c3ccccc3)[n+](C)c(-c3ccccc3)c2)cc1-c1ccccc1,inactive: -4.6%
2,Oc1cc(O)cc(/C=C/c2ccc(O)cc2O)c1,inconclusive: 75.3%
3,Cc1ccc2c(C)c3ccc4ccccc4c3c[n+]2c1,inconclusive: 79.7%
4,COC(=O)C1=C(C(=O)OC)SC2(S1)C(C(=O)OC)=C(C(=O)OC)Sc1c2ssc1=O,active: 117%
5,C=CCN1C(=O)/C(=C/c2ccc(Br)s2)C(=O)NC1=S,inconclusive: 89.1%
6,CC(=O)O[C@H]1C[C@@H]2OC3C=C(C)CCC3(C)[C@@]1(C)[C@@]21CO1 (some centres not stated),inconclusive: 85.7%
7,CN1CCN(c2ccc([N+](=O)[O-])c(NCc3ccco3)c2)CC1,inactive: -1.63%
8,COc1ccc(OC)c(N2C(=O)NC(=O)/C(=C/c3ccc([N+](=O)[O-])s3)C2=O)c1,active: 105%
9,O=C1N(c2ccc(Cl)cc2)C(c2cccnc2)N2CCCN12 (configuration not stated),inconclusive: 77.6%
10,CCOC(=O)c1c(-c2ccc(OC)cc2)oc2ccc(OC(=O)N(C)C)cc12,inconclusive: 77.1%
11,COc1ccc(CN2C(=O)NC(=O)/C(=C/c3ccc([N+](=O)[O-])s3)C2=O)cc1,active: 101%
12,O=C1C(=O)c2ccccc2-c2ccccc21,inconclusive: 89.6%
13,COc1ccc(CCNCc2ccncc2)cc1,inactive: 7.86%
14,COc1cc(/C=C/[N+](=O)[O-])ccc1OC(=O)c1cccnc1,active: 109%
15,Cc1ccc(C[n+]2c(-c3ccc(C)cc3)cc(-c3ccc(C)cc3)cc2-c2ccc(C)cc2)cc1,inconclusive: 78.5%
16,CCC(=Nc1ccc2c(c1)CCC2)c1c(O)n(-c2ccc(OC)cc2)c(=O)[nH]c1=O,inactive: 10.3%
17,COc1ccc(Cn2c(O)c(/C=N/NC(=O)c3ccccc3O)c(=O)[nH]c2=O)cc1,inactive: -4.49%

# Part of the list above in order of heavy-atom count, falling.
row,Compound,inhibition
16,CCC(=Nc1ccc2c(c1)CCC2)c1c(O)n(-c2ccc(OC)cc2)c(=O)[nH]c1=O,inactive: 10.3%
7,CN1CCN(c2ccc([N+](=O)[O-])c(NCc3ccco3)c2)CC1,inactive: -1.63%
6,CC(=O)O[C@H]1C[C@@H]2OC3C=C(C)CCC3(C)[C@@]1(C)[C@@]21CO1 (some centres not stated),inconclusive: 85.7%
